Results: patent US20060024297A1 (published 2006)
Numbering of substitutions follows the chain as printed. These are yes or no findings as the source states them, for the method shown. Some entries that bind do so weakly or less than the wild type. Blank lines part the entries; values can stand above or below the binder they belong to.

By UniProt entry, the sequences of proteins in these tests, tags left out. Where a name states a change or a piece, a line headed by the entry shows the natural chain unless it says otherwise.
UniProt P35590: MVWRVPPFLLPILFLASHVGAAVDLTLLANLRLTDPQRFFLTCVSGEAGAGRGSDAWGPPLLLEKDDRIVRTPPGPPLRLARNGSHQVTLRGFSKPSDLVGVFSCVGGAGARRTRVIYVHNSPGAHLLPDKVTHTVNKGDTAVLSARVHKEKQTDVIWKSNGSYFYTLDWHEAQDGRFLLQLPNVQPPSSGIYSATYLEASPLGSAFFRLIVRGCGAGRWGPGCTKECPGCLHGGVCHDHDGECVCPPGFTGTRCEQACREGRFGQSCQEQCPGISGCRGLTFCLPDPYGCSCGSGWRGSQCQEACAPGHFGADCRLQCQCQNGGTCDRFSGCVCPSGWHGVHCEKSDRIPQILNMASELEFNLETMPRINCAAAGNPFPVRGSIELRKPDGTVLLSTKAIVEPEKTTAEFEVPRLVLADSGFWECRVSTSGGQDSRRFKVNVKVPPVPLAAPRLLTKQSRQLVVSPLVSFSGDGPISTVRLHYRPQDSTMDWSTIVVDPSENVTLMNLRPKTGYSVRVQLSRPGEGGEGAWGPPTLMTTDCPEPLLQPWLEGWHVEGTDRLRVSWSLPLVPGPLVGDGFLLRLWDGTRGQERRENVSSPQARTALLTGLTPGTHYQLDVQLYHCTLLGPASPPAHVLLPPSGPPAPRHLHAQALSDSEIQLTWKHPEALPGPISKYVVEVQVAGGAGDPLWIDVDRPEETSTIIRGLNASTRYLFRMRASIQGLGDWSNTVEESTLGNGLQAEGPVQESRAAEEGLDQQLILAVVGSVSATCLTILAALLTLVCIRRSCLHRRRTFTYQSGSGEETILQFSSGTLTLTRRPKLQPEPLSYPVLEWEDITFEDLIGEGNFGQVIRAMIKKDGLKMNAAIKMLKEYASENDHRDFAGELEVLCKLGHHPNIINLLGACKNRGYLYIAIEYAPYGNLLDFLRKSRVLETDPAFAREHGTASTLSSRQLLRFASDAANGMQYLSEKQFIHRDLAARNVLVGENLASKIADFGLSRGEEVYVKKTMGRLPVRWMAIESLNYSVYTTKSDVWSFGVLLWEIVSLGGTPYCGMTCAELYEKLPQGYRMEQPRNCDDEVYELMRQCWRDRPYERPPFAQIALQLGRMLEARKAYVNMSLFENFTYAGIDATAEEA

Tests used:
[1] = target: endogenous human Tie1 of primary human endothelial cells (HDMEC/HDMVEC, HUVEC) and human tissues (human) (UniProt P35590); experiment: Western blot, HDMEC
[2] = target: endogenous human Tie1 of primary human endothelial cells (HDMEC/HDMVEC, HUVEC) and human tissues (human) (UniProt P35590); experiment: immunofluorescence, HDMEC
[3] = target: endogenous human Tie1 of primary human endothelial cells (HDMEC/HDMVEC, HUVEC) and human tissues (human) (UniProt P35590); experiment: immunohistochemistry, human skin
[4] = target: endogenous human Tie1 of primary human endothelial cells (HDMEC/HDMVEC, HUVEC) and human tissues (human) (UniProt P35590); experiment: immunohistochemistry, human kidney
[5] = target: endogenous human Tie1 of primary human endothelial cells (HDMEC/HDMVEC, HUVEC) and human tissues (human) (UniProt P35590); experiment: immunohistochemistry, human breast
[6] = target: human Tie1, full length, V5-tagged (pcDNA3-Tie1-V5), in transiently transfected COS1 cells (human) (UniProt P35590); experiment: Western blot, Tie1-V5-transfected COS1
[7] = target: endogenous human Tie1 of primary human endothelial cells (HDMEC/HDMVEC, HUVEC) and human tissues (human) (UniProt P35590); experiment: immunohistochemistry, human lung carcinoma
[8] = target: human Tie1, full length, V5-tagged (pcDNA3-Tie1-V5), in transiently transfected COS1 cells (human) (UniProt P35590); experiment: immunofluorescence, Tie1-V5-transfected COS1
[9] = target: human Tie1, full length, V5-tagged (pcDNA3-Tie1-V5), in transiently transfected COS1 cells (human) (UniProt P35590); experiment: immunoprecipitation, Tie1-V5-transfected COS1
[10] = target: endogenous human Tie1 of primary human endothelial cells (HDMEC/HDMVEC, HUVEC) and human tissues (human) (UniProt P35590); experiment: immunohistochemistry, frozen human tissue sections
[11] = target: endogenous human Tie1 of primary human endothelial cells (HDMEC/HDMVEC, HUVEC) and human tissues (human) (UniProt P35590); experiment: Western blot, immunoprecipitation, immunofluorescence
[12] = target: human Tie1, full length, V5-tagged (pcDNA3-Tie1-V5), in transiently transfected COS1 cells (human) (UniProt P35590); experiment: as above
[13] = target: endogenous human Tie1 of primary human endothelial cells (HDMEC/HDMVEC, HUVEC) and human tissues (human) (UniProt P35590); experiment: immunohistochemistry, human lung
[14] = target: endogenous human Tie1 of primary human endothelial cells (HDMEC/HDMVEC, HUVEC) and human tissues (human) (UniProt P35590); experiment: immunoprecipitation, HDMEC

B1: B2 IgG (anti-Tie1 isolate s-B2, human IgG1) (antibody, V domains shown)
VH: EVQLLESGGGLVQPGGSLRLSCAASGFTFSIYGMAWVRQAPGKGLEWVSVISPSGGQTFYADSVKGRFTISRDNSKNTLYLQMNSLRAEDTAVYYCARVYYYGMDVWGQGTTVTVSS
VL: DIQMTQSPATLSLSPGERATLSCRASQSVSSYLAWYQQKPGQAPRLLIYDASNRATGIPARFSGSGSETDFTLTISSLEPEDFAVYYCQQRSKWPRTFGQGTKLEIK
binding [1]: binds
binding [2]: binds
binding [3]: binds
binding [4]: binds
binding [5]: binds
binding [6]: binds
binding [7]: binds
binding [8]: binds
binding [9]: binds
binding [10]: binds
binding [11]: binds
binding [12]: binds

B3: A2 IgG (anti-Tie1 isolate s-A2, human IgG1) (antibody, V domains shown)
VH: EVQLLESGGGLVQPGGSLRLSCAASGFTFSRYTMMWVRQAPGKGLEWVSGIYPSGGVTLYADSVKGRFTISRDNSKNTLYLQMNSLRAEDTAVYYCARVNYYDSSGYGPIAPGLDYWGQGTLVTVSS
VL: DIQMTQSPGTLSLSPGERATLSCRASRSVIISYVAWYQQKPGQAPRLLIYGASTRATGIPDRFSGSGSGTDFTLTISRLEPEDFAVYFCQLYGRSPRIIFGQGTRLEIK
binding [1]: binds
binding [2]: binds
binding [14]: binds
binding [6]: binds
binding [8]: binds
binding [9]: binds
binding [11]: binds
binding [12]: binds

B5: C2 IgG (anti-Tie1 isolate s-C2, human IgG1) (antibody, V domains shown)
VH: B3 VH with T33K, M35K, G50V, V57G, L59G
VL: AQSVLTQPDSVSGSPGESITISCTGSSRDVGGYNYVSWYQQHPGKAPKLLLYDVTYRPSGISGRFSGSKSGDTASLTISGLRTEDEADYYCSSSIGTRTYVFGSGTKVTVLR
binding [1]: binds
binding [2]: binds
binding [14]: binds
binding [6]: binds
binding [8]: binds
binding [9]: binds
binding [11]: binds
binding [12]: binds

B7: H4 IgG (anti-Tie1 isolate s-H4, human IgG1) (antibody, V domains shown)
VH: EVQLLESGGGLVQPGGSLRLSCAASGFTFSSYKMGWVRQAPGKGLEWVSSIYPSGGWTHYADSVKGRFTISRDNSKNTLYLQMNSLRAEDTAVYYCARVLLHYFDYWGQGTLV
VL: AQSVLTQPASVSGSPGQSITISCTGTSSDVGGYKYVSWYQQHPGKAPKLIISDVNNRPSGVSDRFSGSKSGNTASLTISGLQAEDDGDYYCSSYASSSYTSSTTWVFGGGTKLTVLG
binding [1]: binds
binding [2]: binds
binding [14]: binds
binding [6]: binds
binding [8]: binds
binding [9]: binds
binding [11]: binds
binding [12]: binds

Now from value to binder:

binding [1]: binds
binding [2]: binds
binding [3]: binds
binding [13]: binds
binding [4]: binds
binding [5]: binds
binding [6]: binds
binding [8]: binds
binding [9]: binds
binding [11]: binds
binding [12]: binds
B2: D11 IgG (anti-Tie1 isolate s-D11, human IgG1) (antibody, V domains shown)
VH: EVQLLESGGGLVQPGGSLRLSCAASGFTFSGYAMWWVRQAPGKGLEWVSSISPSGGATAYADSVKGRFTISRDNSKNTLYLQMNSLRAEDTAVYYCARDAGSYYWGWFDPWGQGTLVTVSS
VL: B1 VL with V29I, A43P, N53S, A55V, S67F, E68G, Q89L, K93S

binding [1]: binds
binding [2]: binds
binding [14]: binds
binding [6]: binds
binding [8]: binds
binding [9]: binds
binding [11]: binds
binding [12]: binds
B4: C10 IgG (anti-Tie1 isolate s-C10, human IgG1) (antibody, V domains shown)
VH: B3 VH with R31A, T33G, M35S, G50V, V57W, L59Y
VL: DIQMTQSPGTLSLSPGERATLSCRASQSVSSSYLAWYQQKPGQAPRLLIYGASSRATGIPDRFSGSGSGTDFTLTISRLEPEDFAVYYCQQYNNWPRTFGQGTKVEIK

binding [1]: binds
binding [2]: binds
binding [14]: binds
binding [6]: binds
binding [8]: binds
binding [9]: binds
binding [11]: binds
binding [12]: binds
B6: B9 IgG (anti-Tie1 isolate s-B9, human IgG1) (antibody, V domains shown)
VH: B3 VH with R31S, T33V, V57W, L59Y, A61T
VL: DIQMTQSPSSLSASVGDRVTITCRASQSVSSHLSWFQQRPGKAPNLLIYHASSLQSGVPSRFSGSGSGTDFTLTISSLQPEDFATYYCQQSYATSSITFGQGTRLDIK

binding [1]: binds
binding [2]: binds
binding [14]: binds
binding [6]: binds
binding [8]: binds
binding [9]: binds
binding [11]: binds
binding [12]: binds
B8: C7 IgG (anti-Tie1 isolate s-C7, human IgG1) (antibody, V domains shown)
VH: EVQLLESGGGLVQPGGSLRLSCAASGFTFSRYVMYWVRQAPGKGLEWVSVIYPSGGATYYADSVKGRFTISRDNSKNTLYLQMNSLRAEDTAVYYCARRGSSGAFDYWGQGTLVTVSS
VL: AQSVLTQPASVSGSPGQSITISCTGTSSDIGRYNYASWYQQRPGKSPKLLIYEVSDRPSGVSNRFSGSKSGNTASLIISGLQAEDEADYYCSSYSSTNSLQVVFGGGTKLSVLG

binding [1]: binds
binding [2]: binds
binding [14]: binds
binding [6]: binds
binding [8]: binds
binding [9]: binds
binding [11]: binds
binding [12]: binds
B9: A10 IgG (anti-Tie1 isolate s-A10, human IgG1) (antibody, V domains shown)
VH: EVQLLESGGGLVQPGGSLRLSCAASGFTFSNYVMVWVRQAPGKGLEWVSGIYPSGGHTKYADSVKGRFTISRDNSKNTLYLQMNSLRAEDTAVYYCARVNYYDSSGYGPIAPGLDYWGQGTLV
VL: DIQMTQSPGTLSLSPGERATLFCRASQRVTSNSLAWYQQRPGQAPRLLIYDASTRATGIPDRFSGSGSGRDFTLTISRLEPEDFAVYYCQRYGSSVLYSFGQGTKLEIT
